Experimental data published in ChEMBL document CHEMBL4513158, “CO-ADD screening of RKDF (India) compounds”.
The list shows a part of the results. Potency and affinity values are given separately.

System: Acinetobacter baumannii
Conditions: Concentration 32 ug.mL-1; ASSAY_TEST Inhibition of Bacterial Growth; detection method Absorption (OD600); MEDIA CAMHB; plate type 384well; NBS; CORNING #3640; time 18 hr

SMILES | Inhibition
CN(C)C(=N)NC(=N)N.Cl [METFORMIN HYDROCHLORIDE] | 16.43%
C=C[C@H]1[C@H](O[C@@H]2O[C@H](CO)[C@@H](O)[C@H](O)[C@H]2O)OC=C2C(=O)OCC[C@]21O [SWERTIAMARIN] | 18.59%
